Publication PMC8599755
No constants are given. Whether binding was seen depends on the method and setting. In cells and extracts the contact can be indirect. Here binding means that the protein was enriched with, or labelled near, the bait; the list need not be complete. Where a sequence is shown, tags or fusion partners need not be part of it.

Molecular target: T1, APEX2-RBM6 fusion (human (endogenous in MCF10A)) (UniProt P78332)
T1 sequence: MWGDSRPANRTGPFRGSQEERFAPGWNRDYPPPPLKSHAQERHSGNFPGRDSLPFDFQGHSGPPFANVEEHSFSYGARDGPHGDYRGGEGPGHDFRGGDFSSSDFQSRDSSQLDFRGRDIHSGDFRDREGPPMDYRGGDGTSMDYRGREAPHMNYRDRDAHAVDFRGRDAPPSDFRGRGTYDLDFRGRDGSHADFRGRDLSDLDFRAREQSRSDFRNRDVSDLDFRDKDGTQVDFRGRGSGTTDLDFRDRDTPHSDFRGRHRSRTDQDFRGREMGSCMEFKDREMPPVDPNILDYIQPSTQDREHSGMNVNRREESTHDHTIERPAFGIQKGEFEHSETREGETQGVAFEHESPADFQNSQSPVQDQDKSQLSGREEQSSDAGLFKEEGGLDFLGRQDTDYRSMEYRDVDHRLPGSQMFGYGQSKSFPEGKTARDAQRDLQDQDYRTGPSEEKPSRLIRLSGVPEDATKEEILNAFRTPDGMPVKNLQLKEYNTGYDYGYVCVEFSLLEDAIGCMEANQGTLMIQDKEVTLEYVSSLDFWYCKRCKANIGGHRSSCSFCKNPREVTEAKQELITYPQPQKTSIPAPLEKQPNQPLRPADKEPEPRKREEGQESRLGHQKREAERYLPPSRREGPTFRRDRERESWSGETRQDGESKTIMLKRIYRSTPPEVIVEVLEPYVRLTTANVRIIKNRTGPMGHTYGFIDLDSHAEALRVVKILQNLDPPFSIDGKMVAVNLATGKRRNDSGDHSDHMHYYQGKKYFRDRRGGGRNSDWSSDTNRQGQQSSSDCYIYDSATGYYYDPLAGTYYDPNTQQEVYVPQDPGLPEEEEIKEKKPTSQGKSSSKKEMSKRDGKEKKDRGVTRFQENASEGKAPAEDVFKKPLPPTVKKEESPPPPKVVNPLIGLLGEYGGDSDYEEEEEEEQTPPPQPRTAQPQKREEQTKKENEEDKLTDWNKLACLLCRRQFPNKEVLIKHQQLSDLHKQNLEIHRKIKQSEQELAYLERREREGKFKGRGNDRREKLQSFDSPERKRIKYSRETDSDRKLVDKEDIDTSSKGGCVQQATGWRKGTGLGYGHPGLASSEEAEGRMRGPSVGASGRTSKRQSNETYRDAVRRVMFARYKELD
Experiment: proximity labelling; APEX2-RBM6 in MCF10A cells; biotin-phenol, activation with H2O2; biotinylated proteins isolated and subjected to mass spectrometry; compared with control MCF10A cells

binding: binds
B1: RNPS1 (protein, UniProt Q15287 1-305)
chain: MDLSGVKKKSLLGVKENNKKSSTRAPSPTKRKDRSDEKSKDRSKDKGATKESSEKDRGRDKTRKRRSASSGSSSTRSRSSSTSSSGSSTSTGSSSGSSSSSASSRSGSSSTSRSSSSSSSSGSPSPSRRRHDNRRRSRSKSKPPKRDEKERKRRSPSPKPTKVHIGRLTRNVTKDHIMEIFSTYGKIKMIDMPVERMHPHLSKGYAYVEFENPDEAEKALKHMDGGQIDGQEITATAVLAPWPRPPPRRFSPPRRMLPPPPMWRRSPPRMRRRSRSPRRRSPVRRRSRSPGRRRHRSRSSSNSSR
